Reference: patent US20240424002A1, “METHODS AND COMPOSITIONS FOR TREATING MELANOMA” (THE REGENTS OF THE UNIVERSITY OF CALIFORNIA, priority 2021, published 2024)
At least one structure is not confirmed: it was looked up by name or label, or the drawing left a doubt.

Assays:
[1] = tested on: M249-VSR sublines; assay: Viability assay for inducing and protecting from ferroptosis; type: cell-based, human; conditions: added in combination with RSL3; CellTiter-Glo 24 hr after treatment; FIG. 7B-C / 24B-C
Protocol: 6000 cells were seeded per well in 96-well plates and treated with ferroptosis inducing agents in combination with vehicle, GSH (Sigma, G4376), Trolox (Acros Organics, 218940010) or DFO (Sigma, D9533) next day. CellTiter-Glo luminescence was assessed 24 hr after treatment. For quantification, all values are normalized to vehicle conditions. Resistance cells were maintained in full dose of MAPK inhibitors throughout the treatments to keep the BRAF amplifications.

[2] = tested on: M249-P, M249-VSR-DM and M249-VSR-HSR cells; assay: Dose response curve of ferroptosis inducing agents, viability by CellTiter-Glo; type: cell-based, human
Protocol: The dose response curves of ferroptosis inducing agents RSL3, Erastin and Ferroptocide were performed by seeding appropriate number of cells on day 0 in 96-well plates, […] luminescent assay. If not otherwise mentioned, resistance cells were maintained in full dose of MAPK inhibitors throughout the dose response experiments to keep the BRAF amplifications. Seeding density for each cell line was determined by using the same assay and the same experimental length with multiple cell number titrations. The dose series were generated by serial dilutions. All drugs used for dose response curves were dissolved in DMSO. DMSO toxicity was performed on the cell lines to determine the appropriate DMSO concentration (0.5%), which was used in all doses. The resulting values from viability assays were normalized to the zero-dose condition after subtracting background (wells with no cells). The curve fittings were performed by using three-parameter model in dre v3.0-1 R package (119).

CC(=O)N(O)CCCCCNC(=O)CCC(=O)N(O)CCCCCNC(=O)CCC(=O)N(O)CCCCCN [DFO, deferoxamine] was tested, and the “rescue of RSL3-induced cell death (percent viable cells)” value [1] was “cell death can be rescued”.

For CCOc1ccccc1-n1c(C(C)N2CCN(C(=O)COc3ccc(Cl)cc3)CC2)nc2ccccc2c1=O (stereo not drawn) [Erastin], the “sensitivity of BRAF-amplified M249 dual MAPKi-resistant cells compared to parental” value ([2]; FIG. 23B, M249-VSR-DM and -HSR, 72 hr treatment, CellTiter-Glo) was “not more sensitive” and the “sensitivity of BRAF-amplified M249 dual MAPKi-resistant cells compared to parental” value ([2]; FIG. 24D, M249-VSR DM and HSR, six replicates) was “not more sensitive”.
